## Primary screen of a compound library

Sequences of proteins named here, by UniProt entry; tags and fusion partners are left off.
UniProt E9BF75, entry or part of it: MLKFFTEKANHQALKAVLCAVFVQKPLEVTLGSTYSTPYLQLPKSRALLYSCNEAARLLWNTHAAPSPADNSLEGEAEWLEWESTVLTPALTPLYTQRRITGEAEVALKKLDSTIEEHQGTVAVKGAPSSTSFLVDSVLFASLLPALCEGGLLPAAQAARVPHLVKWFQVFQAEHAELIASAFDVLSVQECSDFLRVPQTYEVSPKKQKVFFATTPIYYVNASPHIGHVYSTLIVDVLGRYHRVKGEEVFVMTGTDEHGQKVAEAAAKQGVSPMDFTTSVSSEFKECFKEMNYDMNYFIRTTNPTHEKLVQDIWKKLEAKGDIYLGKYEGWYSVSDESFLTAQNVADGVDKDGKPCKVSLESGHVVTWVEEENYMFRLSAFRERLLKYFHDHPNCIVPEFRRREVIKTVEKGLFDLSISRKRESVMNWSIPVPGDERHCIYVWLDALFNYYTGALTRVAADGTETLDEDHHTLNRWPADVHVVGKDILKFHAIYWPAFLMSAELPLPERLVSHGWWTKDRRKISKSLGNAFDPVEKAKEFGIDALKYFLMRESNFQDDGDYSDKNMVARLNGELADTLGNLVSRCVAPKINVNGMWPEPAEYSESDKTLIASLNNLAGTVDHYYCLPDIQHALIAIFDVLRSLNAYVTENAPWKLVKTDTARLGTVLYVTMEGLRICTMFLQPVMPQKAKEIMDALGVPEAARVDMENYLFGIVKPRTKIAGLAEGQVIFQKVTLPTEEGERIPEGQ

Source: ChEMBL document CHEMBL3988442, “University of Dundee, Small-Polar-MMV Screening Library” (2021).

All values are in %.
How 0% and 100% were set is not recorded. Most values in the screen are low, and negative values occur.
Compounds were drawn at random from those tested, without regard to their results.

LdMetRS: 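Methionyl-tRNA synthetase (putative), Leishmania donovani (UniProt E9BF75). Primary screen of methionyl-tRNA synthetase; the read-out is not stated. The test concentration is not given. The values are filed as inhibition. About 68,000 compounds were tested under these conditions; 0.035% (about 24) showed 50% or more at least once.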
Mtb heat-shock: 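Assay on Mycobacterium tuberculosis, filed only as a heat shock assay from Cornell; the read-out is not stated. The concentration is filed as 10 mM, unlikely as a test dose, so the dose is not known. Higher reads as stronger inhibition (inferred: compounds with an IC50 in retests scored well above the rest). Size under these conditions: about 69,000 compounds, about 930 of them at 50% or above in at least one test.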

CCS(=O)(=O)N1CCCc2ccc(NC(=O)Cc3ccc(F)cc3)cc21 read LdMetRS: 0.9804%; Mtb heat-shock: 9.092%. With CC(C)N(C)S(=O)(=O)N1CCCC1C(=O)N1CCSCC1 (centres undefined) the screen gave LdMetRS: 11.38%; Mtb heat-shock: 6.982%. Result for CC(C)(O)CN1CCN(C(=O)C2CSc3ccccc3O2)CC1 (centres undefined) was LdMetRS: 13.71%; Mtb heat-shock: -45.08%. Result for CC(C)c1cc(C(=O)N[C@H]2CN(C3CCOCC3)C[C@@H]2C2CC2)no1 was LdMetRS: 9.157%; Mtb heat-shock: 19.63%. Result for CC(Cn1ccnc1)NC(=O)N1CCN(Cc2cccs2)CC1 (centres undefined) was LdMetRS: 12.5%; Mtb heat-shock: -8.821%. O=C(Nc1ccn(Cc2cccc3cccnc23)n1)C1COCCO1 (centres undefined) gave LdMetRS: 20.49%; Mtb heat-shock: -9.19%. [H][C@]12CC[C@]([H])(CN(c3ccnc(SC)n3)C1)N(CC1CCC1)C2=O gave Mtb heat-shock: 7.782%. With Cc1cc(Cn2cc(C#N)c(=O)c3ccccc32)on1 the screen gave LdMetRS: 9.409%; Mtb heat-shock: -1.39%.

Result for CC(C)(C)c1nnc(CN2CCCC(Cn3cncn3)C2)o1 (centres undefined) was LdMetRS: 6.748%; Mtb heat-shock: -2.498%. Result for Cc1cc(NC(=O)CN(C)C2CCCN(c3cccnn3)C2)n(C)n1 (centres undefined) was LdMetRS: 12.6%; Mtb heat-shock: 3.802%. For CN(Cc1ccncc1)C(=O)Nc1cnn(CC(N)=O)c1 the result was LdMetRS: 11.68%; Mtb heat-shock: 4.74%. For CC(Cn1cncc1-c1cnn(Cc2ccccc2)c1)N1CCCCC1 (centres undefined) the result was LdMetRS: 13.95%. For CCc1c(C)n(CC(C)=O)c2nc3ccccc3n2c1=O the result was LdMetRS: 17.16%; Mtb heat-shock: -3.386%. Result for CCc1nnc(CN(CC)C(=O)CCc2scnc2C)o1 was LdMetRS: 15.22%; Mtb heat-shock: 18.77%. Cc1cccc(CS(=O)(=O)CC(=O)N(C)Cc2ccccc2F)c1 gave LdMetRS: 9.966%; Mtb heat-shock: 30.38%. Cc1nc(C)n(CC2CCCN2c2ncnc3c2CCC3)n1 (centres undefined) read LdMetRS: 13.61%; Mtb heat-shock: -2.834%.

With COc1ccc(SCC2CNc3nc4ccccc4c(=O)n32)cc1 (centres undefined) the screen gave LdMetRS: 14.02%; Mtb heat-shock: 17.7%. For CS(=O)(=O)CC1CCCN(C(=O)Cn2cccc(C(F)(F)F)c2=O)C1 (centres undefined) the result was LdMetRS: -2.439%; Mtb heat-shock: -20.92%. CC(C)c1nc(CN(C)C2CCN(Cc3nc(C4CC4)no3)C2)no1 (centres undefined) gave LdMetRS: 7.389%; Mtb heat-shock: -10.09%. CCOC(=O)C1CCN(CCCc2nnnn2-c2ccccc2)CC1 read LdMetRS: 9.42%; Mtb heat-shock: -4.724%. Result for [H][C@@]12CCN(C(=O)N(C)C)[C@]1([H])CC[C@H](C(=O)N(C)C)O2 was Mtb heat-shock: -21.55%. c1ccc(-n2nnnc2CNCC2CCCN2c2cccnn2)cc1 (centres undefined) gave LdMetRS: 27.43%; Mtb heat-shock: 28.4%. With COCCCNC(=O)CN(C)C(C)c1nc(C)no1 (centres undefined) the screen gave LdMetRS: 5.919%; Mtb heat-shock: 0.8688%. For CN1CCN(S(=O)(=O)NCC2COc3ccccc3C2)CC1 (centres undefined) the result was LdMetRS: 14.44%; Mtb heat-shock: -0.1697%.

With O=C(c1ccncc1F)N1Cc2nc(CN3CCCCC3)oc2C1 the screen gave LdMetRS: 10.64%. [H][C@@]12CCC(=O)N(CC(C)C)[C@]1([H])CCN(Cc1ncc[nH]1)C2 gave Mtb heat-shock: 4.16%. Cn1ccc2c(C(=O)N3CCCC3c3noc(C4CC4)n3)cccc21 (centres undefined) read LdMetRS: 10.84%; Mtb heat-shock: -1.468%. With Cc1[nH]ccc1C(=O)N1CCC2(CC1)c1nc[nH]c1CCN2S(C)(=O)=O the screen gave LdMetRS: 9.22%; Mtb heat-shock: 4.335%. COc1ccc(NC(=O)N2CCCC2c2ccco2)cc1OC (centres undefined) gave LdMetRS: 10.78%; Mtb heat-shock: -8.647%. With Cc1ccc(S(=O)(=O)n2ccc(C(=O)NCC(F)(F)F)c2)cc1 the screen gave LdMetRS: 9.946%; Mtb heat-shock: 1.832%. With COCC(=O)N1CCC(c2cc(-c3ccc(OC)cc3)n[nH]2)C1 (centres undefined) the screen gave LdMetRS: 5.851%; Mtb heat-shock: -16.08%. O=C(O)C(F)(F)F.[H][C@@]12C[C@@H](C(=O)NC(C)C)C[C@@]1([H])N(Cc1cnn(C)c1)CCO2 read Mtb heat-shock: 12.9%.

For CCN1C(=O)[C@]2(CC[C@@H]3CN(S(=O)(=O)CC(C)C)C[C@@H]32)N=C1C the result was LdMetRS: 16.19%. CNc1nc(C2CCCN2C(C)=O)nc2c1CCN(CC1CC1)C2 (centres undefined) gave LdMetRS: 18.53%; Mtb heat-shock: -9.606%. For Cc1cc(C)c2nc(CN(C)C(C)c3ccncn3)cc(O)c2c1 (centres undefined) the result was LdMetRS: 14.73%; Mtb heat-shock: -7.665%. For CCCn1nnnc1CSc1nccn1Cc1ccccn1 the result was LdMetRS: 8.163%; Mtb heat-shock: -24.34%. Result for COCCC(=O)N1CCC2(CCN(Cc3cccc(F)c3)CC2)C1.O=C(O)C(F)(F)F was Mtb heat-shock: -0.5094%. With Cc1cc(N(C)C)nc(C2(C)CCNCC2)n1 the screen gave LdMetRS: -2.1%; Mtb heat-shock: 7.582%. CC1CCCN(c2nccn3c(=O)[nH]nc23)C1 (centres undefined) gave LdMetRS: 1.143%; Mtb heat-shock: -15.56%. For CCNc1ncc(CN2C[C@@H](C(=O)O)[C@H](C3CC3)C2)cn1 the result was LdMetRS: 7.125%; Mtb heat-shock: -0.7412%.

With [H][C@]12CCC[C@@]1(COCC1CCOCC1)CN(C(=O)c1ccc(C)o1)C2 the screen gave Mtb heat-shock: -22.56%.

The first 3 entries again:

| Compound | LdMetRS | Mtb heat-shock |
|---|---|---|
| `CCS(=O)(=O)N1CCCc2ccc(NC(=O)Cc3ccc(F)cc3)cc21` | 0.9804 | 9.092 |
| `CC(C)N(C)S(=O)(=O)N1CCCC1C(=O)N1CCSCC1` (centres undefined) | 11.38 | 6.982 |
| `CC(C)(O)CN1CCN(C(=O)C2CSc3ccccc3O2)CC1` (centres undefined) | 13.71 | -45.08 |